Paper PMC5562746
No constants are given. Whether binding was seen depends on the method and setting. Binding seen in cells or lysates may run through a third protein. For part of these data: Binding calls can cover weak binding; strength is not graded here.

Experiments:
[1] = biological target: microtubules stabilized by Taxol (human (endogenous in HeLa)); test: co-sedimentation; microtubule-pelleting assay: mitotic HeLa cells lysed in PEM buffer with 20 uM Taxol, 1% NP-40 and 1 mM GTP, pellet and supernatant immunoblotted; with or without BI-2536 or reversine
[2] = biological target: GST-tagged Plk1, C-terminal fragment containing PBD (human); test: pull-down; GST-tagged Plk1 constructs bound to glutathione-Sepharose beads incubated with mitotic cell lysates; washes with lysis buffer containing 500 mM and 150 mM NaCl; immunoblotting; only the target purified
[3] = biological target: GST-tagged Plk1, N-terminal fragment (human); test: as above

binding [1]: binds | binding [2]: no binding | binding [3]: no binding
B1: Mps1 (endogenous) (protein, UniProt P33981 1-857)
chain: MESEDLSGRELTIDSIMNKVRDIKNKFKNEDLTDELSLNKISADTTDNSGTVNQIMMMANNPEDWLSLLLKLEKNSVPLSDALLNKLIGRYSQAIEALPPDKYGQNESFARIQVRFAELKAIQEPDDARDYFQMARANCKKFAFVHISFAQFELSQGNVKKSKQLLQKAVERGAVPLEMLEIALRNLNLQKKQLLSEEEKKNLSASTVLTAQESFSGSLGHLQNRNNSCDSRGQTTKARFLYGENMPPQDAEIGYRNSLRQTNKTKQSCPFGRVPVNLLNSPDCDVKTDDSVVPCFMKRQTSRSECRDLVVPGSKPSGNDSCELRNLKSVQNSHFKEPLVSDEKSSELIITDSITLKNKTESSLLAKLEETKEYQEPEVPESNQKQWQSKRKSECINQNPAASSNHWQIPELARKVNTEQKHTTFEQPVFSVSKQSPPISTSKWFDPKSICKTPSSNTLDDYMSCFRTPVVKNDFPPACQLSTPYGQPACFQQQQHQILATPLQNLQVLASSSANECISVKGRIYSILKQIGSGGSSKVFQVLNEKKQIYAIKYVNLEEADNQTLDSYRNEIAYLNKLQQHSDKIIRLYDYEITDQYIYMVMECGNIDLNSWLKKKKSIDPWERKSYWKNMLEAVHTIHQHGIVHSDLKPANFLIVDGMLKLIDFGIANQMQPDTTSVVKDSQVGTVNYMPPEAIKDMSSSRENGKSKSKISPKSDVWSLGCILYYMTYGKTPFQQIINQISKLHAIIDPNHEIEFPDIPEKDLQDVLKCCLKRDPKQRISIPELLAHPYVQIQTHPVNQMAKGTTEEMKYVLGQLVGLNSPNSILKAAKTLYEHYSGGESHNSSSSKTFEKKRGKK
